The values that follow come from publication PMC11407306.

Amino acid sequences for entries named in this document (tags omitted).
UniProt P06239: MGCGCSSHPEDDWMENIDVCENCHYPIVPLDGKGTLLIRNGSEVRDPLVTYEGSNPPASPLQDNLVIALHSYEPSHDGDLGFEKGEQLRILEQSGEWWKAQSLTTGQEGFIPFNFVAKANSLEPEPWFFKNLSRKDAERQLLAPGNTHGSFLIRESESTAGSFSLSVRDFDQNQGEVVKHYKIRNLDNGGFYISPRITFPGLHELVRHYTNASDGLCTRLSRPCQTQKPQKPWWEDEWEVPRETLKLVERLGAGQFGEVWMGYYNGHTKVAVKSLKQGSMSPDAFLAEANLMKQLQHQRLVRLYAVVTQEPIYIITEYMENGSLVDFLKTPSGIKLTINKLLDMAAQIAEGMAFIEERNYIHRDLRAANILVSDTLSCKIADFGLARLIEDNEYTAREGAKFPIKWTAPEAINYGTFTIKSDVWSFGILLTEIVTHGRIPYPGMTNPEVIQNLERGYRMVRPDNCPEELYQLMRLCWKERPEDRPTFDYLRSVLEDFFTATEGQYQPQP

Common to all, as to assay: co-IP; endogenous proteins; Jurkat cells (WT, and calcineurin Aα knock-out for the TCRζ and Lck precipitations) activated with soluble anti-CD3 and anti-mouse IgG for the indicated times; lysis in 150 mM NaCl, 20 mM Tris pH 7.5, 1% Triton X-100; agarose-conjugated anti-TCRζ or anti-Lck, or Protein G beads with anti-calcineurin Aα or anti-RhoH, 4-6 h; immunoblot
(In general: In western blotting, separated proteins are transferred to a membrane and probed.)

Assay [1] has as its target T1, RhoH (human (endogenous in Jurkat)) (UniProt Q15669).
T1 sequence: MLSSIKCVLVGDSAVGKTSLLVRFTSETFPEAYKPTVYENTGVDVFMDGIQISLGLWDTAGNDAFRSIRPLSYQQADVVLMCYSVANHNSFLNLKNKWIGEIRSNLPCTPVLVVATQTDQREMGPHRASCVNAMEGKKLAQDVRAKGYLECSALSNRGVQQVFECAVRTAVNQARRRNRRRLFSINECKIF

Assay [2] has as its target Lck (human (endogenous in Jurkat)) (UniProt P06239).
Assay [3] deals with TCRζ (human (endogenous in Jurkat)) (UniProt P20963).

These are yes or no findings as the source states them, for the method shown. Binding seen in cells or lysates may run through a third protein. Some results given as binding are weak or reduced against the parent protein; the word gives no strength.

As to “pTCRζ^Y83 (from UniProt P20963-1 22-164)”, the binding result in assay [1] is given as “binds”.

B1: RhoH (protein, UniProt Q15669 1-191)
chain: T1 sequence
As for B1, the binding result in assay [2] and in assay [3] was “binds” in each case.
